Source: PubChem BioAssay AID1053208 (Peter MacCallum Cancer Centre, 2014)
This is a random part of about 17,000 deposited reagents. Over the whole deposit, 788 (4.7%) got an active call. 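Calls rest on z-score classes alone; an extra cut-off of viability at most 70% of control was not applied to them.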 A reagent listed more than once was tested more than once; the source does not tell the runs apart. Not all columns of the deposit are shown. No sequences are given here.

- Assay: 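Synthetic lethal interactions between gene loss and doxorubicin in osteosarcoma cells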 (primary screen)
- Cell system: mouse osteosarcoma cells, early-passage culture from an engineered mouse model of fibroblastic bone tumour
- Reagents: siRNA pool against mouse genes, 40 nM
- Duration: about 120 h (48 h before drug, then 72 h with drug)
- Conditions: doxorubicin 100 nM for 72 h, roughly 30-40% inhibitory dose
- Measurement: 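Viability read as ATP luminescence after 72 h of 100 nM doxorubicin or none, duplicate wells averaged, scaled to non-targeting siRNA, then expressed as robust z-scores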
- Scale: viability z-score with doxorubicin: higher = more viable cells under doxorubicin; viability z-score without drug: higher = more viable cells with knock-down alone
- Call rule: 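a pool counts as active when its viability z-score with doxorubicin is -2 or below and its z-score without drug lies between -2 and 2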

With knock-down of Dcph1, the screen gave combined z-score class no change with or without drug; viability z-score with doxorubicin 1.57; viability z-score without drug 1.18; inactive.
Svs5 scored combined z-score class no change with or without drug; viability z-score with doxorubicin 0.67; viability z-score without drug -0.17; inactive.
Prm2 showed combined z-score class no change with or without drug; viability z-score with doxorubicin -1.12; viability z-score without drug 1.18; inactive.
After knock-down of Pgk1 the results were combined z-score class no change with or without drug; viability z-score with doxorubicin -0.45; viability z-score without drug -1.52; inactive.
Against Agbl2 the deposit lists combined z-score class no change with or without drug; viability z-score with doxorubicin 0.34; viability z-score without drug -0.51; inactive.
Depletion of Magi3 came out at: combined z-score class no change with or without drug; viability z-score with doxorubicin -1.12; viability z-score without drug -0.84; inactive.
Depletion of Magi3 came out at: combined z-score class no change with or without drug; viability z-score with doxorubicin -0.45; viability z-score without drug -0.17; inactive.
After knock-down of Plekhg6, the record shows combined z-score class no change with or without drug; viability z-score with doxorubicin 1.57; viability z-score without drug -0.51; inactive.
Usp12 showed combined z-score class no change with or without drug; viability z-score with doxorubicin -0.67; viability z-score without drug -0.51; inactive.
Silencing of Mgat4f gave: combined z-score class high cell count without drug only; viability z-score with doxorubicin 1.91; viability z-score without drug 2.36; inactive.
Against Carns1 the deposit lists combined z-score class no change with or without drug; viability z-score with doxorubicin -0.22; viability z-score without drug 0.84; inactive.
Pcolce showed combined z-score class high cell count without drug only; viability z-score with doxorubicin 0.9; viability z-score without drug 2.36; inactive.
Pus10 showed combined z-score class no change with or without drug; viability z-score with doxorubicin -0.9; viability z-score without drug 0.34; inactive.
For Irak2, the values are combined z-score class no change with or without drug; viability z-score with doxorubicin 0.34; viability z-score without drug -0.84; inactive.
Against Dscc1, the values are combined z-score class no change with or without drug; viability z-score with doxorubicin 0.9; viability z-score without drug 1.18; inactive.
Against Cacnb2, the entry reads combined z-score class no change with or without drug; viability z-score with doxorubicin -0.22; viability z-score without drug 0.34; inactive.
Knock-down of Clk2 gave: combined z-score class no change with or without drug; viability z-score with doxorubicin 0.45; viability z-score without drug -0.17; inactive.
With knock-down of Pax5, the record shows combined z-score class no change with or without drug; viability z-score with doxorubicin -0.22; viability z-score without drug 0.34; inactive.
Depletion of Suclg1 came out at: combined z-score class no change with or without drug; viability z-score with doxorubicin 0; viability z-score without drug 0.34; inactive.
Against Lamc1 the deposit lists combined z-score class no change with or without drug; viability z-score with doxorubicin 0.56; viability z-score without drug 1.18; inactive.
Fbxo11 scored combined z-score class no change with or without drug; viability z-score with doxorubicin -0.45; viability z-score without drug 1.01; inactive.
Depletion of Itsn2 resulted in: combined z-score class no change with or without drug; viability z-score with doxorubicin -0.22; viability z-score without drug -0.34; inactive.
Tasor2 showed combined z-score class no change with or without drug; viability z-score with doxorubicin 0.45; viability z-score without drug 0.17; inactive.
Against Grwd1, the entry reads combined z-score class no change with or without drug; viability z-score with doxorubicin 0; viability z-score without drug 0.51; inactive.
For Cacng4 the deposit lists combined z-score class no change with or without drug; viability z-score with doxorubicin 0; viability z-score without drug 1.18; inactive.
Knock-down of Tex13b gave: combined z-score class no change with or without drug; viability z-score with doxorubicin 1.35; viability z-score without drug -0.17; inactive.
Vmn1r234 scored combined z-score class no change with or without drug; viability z-score with doxorubicin -0.22; viability z-score without drug 1.52; inactive.
Silencing of Cyp2c38 gave: combined z-score class no change with or without drug; viability z-score with doxorubicin -0.45; viability z-score without drug 0.84; inactive.
Silencing of Rras resulted in: combined z-score class no change with or without drug; viability z-score with doxorubicin -0.9; viability z-score without drug 0.51; inactive.
Against Gsk3b, the values are combined z-score class no change with or without drug; viability z-score with doxorubicin -0.56; viability z-score without drug -1.35; inactive.
Against Rbm14, the values are combined z-score class no change with or without drug; viability z-score with doxorubicin -0.67; viability z-score without drug -0.67; inactive.
Mob4 showed combined z-score class low cell count with and without drug; viability z-score with doxorubicin -2.36; viability z-score without drug -2.19; inactive.
For Erc1 the deposit lists combined z-score class no change with or without drug; viability z-score with doxorubicin -1.12; viability z-score without drug -0.51; inactive.
Against Disc1 the deposit lists combined z-score class no change with or without drug; viability z-score with doxorubicin -1.8; viability z-score without drug -0.84; inactive.
Mmp17 gave combined z-score class no change with or without drug; viability z-score with doxorubicin -0.11; viability z-score without drug -0.17; inactive.
Dhodh gave combined z-score class no change with or without drug; viability z-score with doxorubicin 1.24; viability z-score without drug 0.84; inactive.

No new results follow: an excerpt of the list.
Vmn1r234 → combined z-score class = no change with or without drug; viability z-score with doxorubicin = -0.22; viability z-score without drug = 1.52; outcome = inactive
Cyp2c38 → combined z-score class = no change with or without drug; viability z-score with doxorubicin = -0.45; viability z-score without drug = 0.84; outcome = inactive
